Laboratory results reported in article PMC11783328.
No constants are given. Whether binding was seen depends on the method and setting. Some entries that bind do so weakly or less than the wild type.

Target: 21N13 Fab (rhesus macaque (Macaca mulatta))
Assay: crystal structure; both purified

B1: 21N13 Fab (Fab, V domains shown)
VH: QVQLQESGPGRVKPSETLSLTCAVSDDSFGSSYFYWSWIRQAPGKGLEWIGYIAYSGGVRYNPSLSSRVTISRNIHERQFYLRLTSMTAADTAVYYCARHCEDDYGYYSAAQSYGLDSWGQGIAVTVSP
VL: DIQMTQSPSSLSASVGDRVTITCRTSENVNNCLNWYQQKPGKAPKLLIYRTSTLQRGVPSRFSGTGSGTDYTLTISSLQSEDFGTYYCQHYYGTPLTFGGGTMVDIK
In the case of B1, the binding is reported as “binds”.
